Results taken from the supplement of paper PMC4604168 (melanoma cell lines).
The list shows a part of the results. Single values are uncertain, as repeats are few or missing.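 Cells were imaged in 1,536-well plates, and nuclei stained with an antibody against cleaved PARP were counted against all DNA-stained nuclei to give the apoptosis fraction. Screening doses were chosen to leave most cells alive, and resting and induced cleaved-PARP levels differ strongly between cell lines.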

The compounds below were run on WM3619 (assay: cleaved PARP positive nuclei fraction relative to DMSO control; melanoma cells; higher = more apoptosis). Settings: library dose: low library concentration; 72 h.
With `Cn1cnc2c(F)c(Nc3ccc(Br)cc3Cl)c(C(=O)NOCCO)cc21` [selumetinib] + Cn1nnc2c(C(N)=O)ncn2c1=O [temozolomide] (first compound 0.015 µM, partner dose 2 µM) the “cleaved PARP positive nuclei fraction” value was 127%. `C[C@]1(O)C[C@@H](c2nc(-c3ccc4ccc(-c5ccccc5)nc4c3)c3c(N)nccn32)C1` + CS(=O)(=O)c1ccc(C(=O)Nc2ccc(Cl)c(-c3ccccn3)c2)c(Cl)c1 [vismodegib] (first compound 0.4 µM, partner dose 1 µM) was tested, and the “cleaved PARP positive nuclei fraction” value was 102%. In the case of `C[C@]1(O)C[C@@H](c2nc(-c3ccc4ccc(-c5ccccc5)nc4c3)c3c(N)nccn32)C1` + Cc1cc(Nc2cc(N3CCN(C)CC3)nc(/C=C/c3ccccc3)n2)n[nH]1 [ENMD2076] (first compound 0.4 µM, partner dose 0.04 µM), the “cleaved PARP positive nuclei fraction” value is reported as 92.6%. `Cn1cnc2c(F)c(Nc3ccc(Br)cc3Cl)c(C(=O)NOCCO)cc21` [selumetinib] + O=C(O)[C@@H]1[O][Sb](=[O])([O][Sb]2(=[O])[O][C@H]([C@H](O)CO)[C@H](O)[C@H](C(=O)O)[O]2)[O][C@H]([C@H](O)CO)[C@@H]1O [stibogluconate] (first compound 0.015 µM, partner dose 2 µM) was tested, and the “cleaved PARP positive nuclei fraction” value was 157%. For `Cn1cnc2c(F)c(Nc3ccc(Br)cc3Cl)c(C(=O)NOCCO)cc21` [selumetinib] + CCN(CC)CCNC(=O)c1c(C)[nH]c(/C=C2\C(=O)Nc3ccc(F)cc32)c1C [sunitinib] (first compound 0.015 µM, partner dose 0.4 µM), the “cleaved PARP positive nuclei fraction” value was 94.1%. `Cn1sc(=O)n(Cc2ccccc2)c1=O` + CN(c1ncccc1CNc1nc(Nc2ccc3c(c2)CC(=O)N3)ncc1C(F)(F)F)S(C)(=O)=O [PF562271] (first compound 0.4 µM, partner dose 0.08 µM) was tested, and the “cleaved PARP positive nuclei fraction” value was 96.7%. For `CC1(C)CCC(c2ccc(Cl)cc2)=C(CN2CCN(c3ccc(C(=O)NS(=O)(=O)c4ccc(N[C@H](CCN5CCOCC5)CSc5ccccc5)c(S(=O)(=O)C(F)(F)F)c4)cc3)CC2)C1` + OCc1c[nH]c2ccccc12 [Indole-3-carbinol] (first compound 0.4 µM, partner dose 0.8 µM), the “cleaved PARP positive nuclei fraction” value was 186%. For `CC(=O)O[C@@]12CO[C@@H]1C[C@H](O)[C@@]1(C)C(=O)[C@H](O)C3=C(C)[C@@H](OC(=O)[C@H](O)[C@@H](NC(=O)OC(C)(C)C)c4ccccc4)C[C@@](O)([C@@H](OC(=O)c4ccccc4)[C@H]21)C3(C)C` [Docetaxel] + NC1(c2ccc(-c3nc4ccn5c(=O)[nH]nc5c4cc3-c3ccccc3)cc2)CCC1 [MK2206] (first compound 0.0001 µM, partner dose 0.4 µM), the “cleaved PARP positive nuclei fraction” value was 153%. With `C[C@]1(O)C[C@@H](c2nc(-c3ccc4ccc(-c5ccccc5)nc4c3)c3c(N)nccn32)C1` + Nc1cccc2c1CN(C1CCC(=O)NC1=O)C2=O [lenalidomide] (first compound 0.4 µM, partner dose 1 µM) the “cleaved PARP positive nuclei fraction” value was 103%. For `C[C@@H](N)c1ccc(C(=O)Nc2ccnc3[nH]ccc23)cc1` + C=CCNC1=C2C[C@@H](C)C[C@H](OC)[C@H](O)[C@@H](C)/C=C(\C)[C@H](OC(N)=O)[C@@H](OC)/C=C\C=C(/C)C(=O)NC(=CC1=O)C2=O [Tanespimycin] (first compound 0.4 µM, partner dose 0.002 µM), the “cleaved PARP positive nuclei fraction” value was 84.7%.
